Key:
[1] = system: male albino Cartworth Farms No. 1 mice; assay: maximal electroshock seizure (MES) test in mice; assay type: in vivo; details: intraperitoneal, in brackets beside ED50
[2] = system: male albino Cartworth Farms No. 1 mice; assay: rotorod test, neurologic toxicity in mice; assay type: in vivo; details: intraperitoneal, in brackets beside TD50

SMILES | time of peak effect, MES ED50 [1] | time of peak effect, Tox TD50 [2]
COC[C@H](OC)C(=O)NCc1ccccc1 [S OCH3 CH2 OCH3, (S)-N-Benzyl-2,3-dimethoxypropionamide] | 0.5 h | –
CCC1(c2ccccc2)C(=O)NC(=O)NC1=O [phenobarbital] | 1 h | 0.5 h
COCC(OC)C(=O)NCc1ccccc1 (stereo not drawn) [R, S OCH3 CH2 OCH3, N-BENZYL 2,3-DIMETHOXY PROPIONAMIDE] | 0.25 h | 0.25 h
CCCC(CCC)C(=O)O [valproate] | 0.25 h | 0.25 h
O=C(NCc1ccccc1)C(O)CO (racemic) [R, S OH CH2 OH, N-Benzyl 2,3-Dihydroxypropionamide] | 0.5 h | –
O=C1NC(=O)C(c2ccccc2)(c2ccccc2)N1 [phenytoin] | 2 h | 0.5 h
COC[C@@H](OC)C(=O)NCc1ccccc1 [R OCH3 CH2 OCH3, (R)-N-Benzyl-2,3-dimethoxypropionamide] | 0.5 h | 0.5 h

Reference: US5880158A, “Propionamide anticonvulsants” (Research Corporation Tech., Inc., priority 1997, dated 1999)
